Test results from patent US5393742A, “Preparation for treating renal disease” (MECT Corporation, priority 1990, dated 1995).
Further values from the same series stand in other lists.

System: Male ddy mice
Assay: Simplified acute toxicity test of N-acetylneuraminates in mice by intravenous injection
Format: in vivo
Experimental: Simplified acute toxicity test:
A simplified acute toxicity test of N-acetylneuraminates in mice by intravenous injection was carried out as follows.
Lithium-, potassium-, barium- and magnesium- salts of N-acetylneuraminic acid were used (all were from MECT Corporation).
Body weights at the start of the test: 17.7-21.1 g
The number of animals at each level: 3 mice
(3) Room temperature: 23±1° C. - Humidity: 55±7%
The above-mentioned test compounds were dissolved in physiological saline solution to make a 0.2 ml solution per 20 g of body weight in a mouse as an injection fluid and injected into the tail vein. The doses were 500, 1,000 and 2,000 mg/kg.

CC(=O)N[C@H]1[C@H]([C@H](O)[C@H](O)CO)OC(O)(C(=O)O)C[C@@H]1O (some centres unmarked) [Magnesium N-acetylneuraminate]
The number of deaths per day course (1000 mg/kg i.v., 1 hrs): 3
The number of deaths per day course (1000 mg/kg i.v., 3 hrs): 0
The number of deaths per day course (1000 mg/kg i.v., 6 hrs): 0
The number of deaths per day course (1000 mg/kg i.v., 24 hrs): 0
The number of deaths per day course (1000 mg/kg i.v., 2 days): 0
The number of deaths per day course (1000 mg/kg i.v., 3 days): 0
The number of deaths per day course (1000 mg/kg i.v., 4 days): 0
The number of deaths per day course (1000 mg/kg i.v., 5 days): 0
The number of deaths per day course (1000 mg/kg i.v., 6 days): 0
The number of deaths per day course (1000 mg/kg i.v., 7 days): 0
The number of deaths per day course (2000 mg/kg i.v., 1 hrs): 3
The number of deaths per day course (2000 mg/kg i.v., 3 hrs): 0
The number of deaths per day course (2000 mg/kg i.v., 6 hrs): 0
The number of deaths per day course (2000 mg/kg i.v., 24 hrs): 0
The number of deaths per day course (2000 mg/kg i.v., 2 days): 0
The number of deaths per day course (2000 mg/kg i.v., 3 days): 0
The number of deaths per day course (2000 mg/kg i.v., 4 days): 0
The number of deaths per day course (2000 mg/kg i.v., 5 days): 0
The number of deaths per day course (2000 mg/kg i.v., 6 days): 0
The number of deaths per day course (2000 mg/kg i.v., 7 days): 0
